In publication PMC7695362:
Results are given in words; binding and its absence hold for the method and conditions named. Binding seen in cells or lysates may run through a third protein. Some results given as binding are weak or reduced against the parent protein; the word gives no strength.

By UniProt entry, the sequences of proteins in these tests, tags left out. Where a name states a change or a piece, a line headed by the entry shows the natural chain unless it says otherwise. Residues count along the entry.
UniProt P08069, residues 31-1367: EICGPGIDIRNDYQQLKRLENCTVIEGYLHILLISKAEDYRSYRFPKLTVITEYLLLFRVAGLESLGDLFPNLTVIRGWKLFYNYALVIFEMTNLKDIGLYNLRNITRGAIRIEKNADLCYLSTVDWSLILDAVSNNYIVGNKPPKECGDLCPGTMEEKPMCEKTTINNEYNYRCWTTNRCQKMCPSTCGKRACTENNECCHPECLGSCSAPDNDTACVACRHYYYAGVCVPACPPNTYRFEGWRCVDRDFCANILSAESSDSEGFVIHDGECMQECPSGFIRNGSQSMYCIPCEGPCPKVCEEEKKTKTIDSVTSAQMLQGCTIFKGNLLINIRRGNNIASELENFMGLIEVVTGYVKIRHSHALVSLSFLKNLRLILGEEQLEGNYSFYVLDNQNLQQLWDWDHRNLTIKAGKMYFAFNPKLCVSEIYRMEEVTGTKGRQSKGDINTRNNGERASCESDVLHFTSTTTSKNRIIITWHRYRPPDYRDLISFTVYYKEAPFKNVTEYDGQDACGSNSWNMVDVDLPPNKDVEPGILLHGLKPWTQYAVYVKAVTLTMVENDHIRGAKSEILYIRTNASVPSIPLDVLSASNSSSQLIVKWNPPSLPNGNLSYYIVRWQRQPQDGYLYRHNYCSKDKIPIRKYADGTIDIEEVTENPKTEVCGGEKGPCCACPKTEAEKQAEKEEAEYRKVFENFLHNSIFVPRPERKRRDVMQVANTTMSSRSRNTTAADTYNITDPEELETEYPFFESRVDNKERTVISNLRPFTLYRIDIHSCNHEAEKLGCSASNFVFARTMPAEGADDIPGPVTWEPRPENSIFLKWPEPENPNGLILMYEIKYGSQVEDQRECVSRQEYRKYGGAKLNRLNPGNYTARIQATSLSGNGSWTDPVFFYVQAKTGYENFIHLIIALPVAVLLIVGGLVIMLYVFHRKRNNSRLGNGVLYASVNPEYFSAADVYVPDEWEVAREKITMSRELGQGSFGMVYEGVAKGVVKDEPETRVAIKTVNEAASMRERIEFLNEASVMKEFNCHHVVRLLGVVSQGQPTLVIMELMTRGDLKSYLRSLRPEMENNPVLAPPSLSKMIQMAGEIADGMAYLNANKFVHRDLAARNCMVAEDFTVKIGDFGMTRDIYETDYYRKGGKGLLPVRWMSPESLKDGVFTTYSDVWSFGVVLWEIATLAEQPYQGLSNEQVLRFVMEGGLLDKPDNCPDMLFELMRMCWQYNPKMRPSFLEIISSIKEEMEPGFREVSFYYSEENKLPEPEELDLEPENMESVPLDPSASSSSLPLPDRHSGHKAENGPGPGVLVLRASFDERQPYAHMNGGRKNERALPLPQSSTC
UniProt Q86TM6: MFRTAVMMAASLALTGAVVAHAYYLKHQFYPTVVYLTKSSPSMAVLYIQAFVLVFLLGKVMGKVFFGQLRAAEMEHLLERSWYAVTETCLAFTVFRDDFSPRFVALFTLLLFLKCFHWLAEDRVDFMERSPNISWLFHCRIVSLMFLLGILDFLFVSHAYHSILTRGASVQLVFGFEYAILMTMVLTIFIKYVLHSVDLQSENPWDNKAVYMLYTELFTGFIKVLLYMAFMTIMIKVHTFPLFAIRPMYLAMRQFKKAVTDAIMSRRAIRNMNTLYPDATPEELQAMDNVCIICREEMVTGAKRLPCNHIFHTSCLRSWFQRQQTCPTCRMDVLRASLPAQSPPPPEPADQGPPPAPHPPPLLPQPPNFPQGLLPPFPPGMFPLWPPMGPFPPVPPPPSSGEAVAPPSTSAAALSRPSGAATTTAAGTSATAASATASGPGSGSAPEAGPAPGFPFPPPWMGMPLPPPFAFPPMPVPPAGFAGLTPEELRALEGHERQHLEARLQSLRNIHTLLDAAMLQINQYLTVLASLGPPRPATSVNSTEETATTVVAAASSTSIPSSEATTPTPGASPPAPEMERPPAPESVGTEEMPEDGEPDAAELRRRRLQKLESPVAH

Target: insulin-like growth factor-1 receiver (IGF-1R) (human (endogenous in HSF)) (UniProt P08069)
Test: co-IP; HSF cells transduced with Ad-NC, Ad-shRNA-Hrd1 or Ad-Hrd1, MG-132 for 4 h, lysed in RIPA buffer with protease/phosphatase inhibitors; precipitated with anti-IGF-1R antibody and protein-A/G magnetic beads, blotted for Hrd1

Hrd1 (hydroxymethylglutaryl coenzyme A reductase degrades protein 1) (from UniProt Q86TM6 1-617)
binding: binds

Hrd1 overexpressed from adenovirus Ad-Hrd1 (from UniProt Q86TM6-1 1-617) (enzyme)
binding: binds
